From PubChem BioAssay AID2685 (National Center for Advancing Translational Sciences (NCATS), 2010)
The other results are listed elsewhere or left out. Further columns of the screen follow, without active or inactive calls. Most of these compounds were active or inconclusive in the main read-out, so they are no random draw. Potencies come from curve fits of mixed quality, noted in brackets.

Experiment: qHTS Assay for Lipid Storage Modulators in Drosophila S3 Cells;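 as to cell number change: cells counted by Cell Tracker Red CMTPX staining in the red channel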
Conditions: BODIPY lipid droplet fluorescence, 18-24 h; for cell number change: measured here: cell count max response, cells fed with added oleic acid
How it was run: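 Drosophila S3 cells got compounds at several concentrations plus oleic acid (400 uM solution). Laser-scanning cytometry with 488 nm excitation read lipid droplets at 500-530 nm and cells at 575-640 nm. Percent activity was relative to 20 uM Triacsin C.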

[1] = measured here: cell number channel AC50, cells fed with added oleic acid
[2] = measured here: lipid fluorescence (Fed channel) AC50, cells fed with added oleic acid

| Compound | cell number change | AC50 [1] | AC50 [2] |
| --- | --- | --- | --- |
| CCOC(=O)c1cc2c(ccn2-c2ccc(F)cc2)n1CC(=O)N(CC)CC | -57.5% | 2.59 µM [falling, partial curve] | 5.8 µM [falling, partial curve] |
| CCN1CCN(S(=O)(=O)c2ccc(C(=O)Nc3sc4c(c3C(N)=O)CCN(CC)C4)cc2)CC1 | 23.8% | – | 29.1 µM [rising, single point] |
| Cc1nc(C(=O)N(C)C)nn1-c1ccc([N+](=O)[O-])cc1 | -12.6% | – | 18.4 µM [falling, single point] |
| Cc1cc(C)cc(NC(=O)C(OC(=O)c2ccc(O)cc2)c2ccccc2)c1 (stereo unspecified) | -37.3% | 23.1 µM [falling, partial curve] | 0.116 µM [rising, full curve, poor fit] |
| CCN1CCN(C(=O)C2CCCN(S(=O)(=O)c3ccc(OC)c(OC)c3)C2)CC1 (stereo unspecified) | 21.4% | – | 18.4 µM [rising, partial curve] |
| CSCCC(=O)Nc1cc(S(=O)(=O)N2CCOCC2)ccc1N1CCN(C)CC1 | 18.5% | – | – |
| COC(=O)c1ccc(CSc2nnc3c(Cl)cc(Cl)cn23)o1 | -18.5% | – | 2.91 µM [rising, full curve] |
| Nc1ccccc1-c1nnc(-c2ccc(-c3ccccc3)cc2)o1 | -59.6% | 13 µM [falling, partial curve, poor fit] | – |
| CC(O)CNCCOc1ccccc1OCc1ccccc1 (stereo unspecified) | -13.2% | – | 29.1 µM [falling, single point] |
| O=C(CCCc1cccs1)Nc1nc(-c2ccc(F)cc2)cs1 | 2.69% | – | 1.3 µM [falling, full curve, poor fit] |
| CCc1ccc(OCC(=O)NC(=S)Nc2ccc(S(=O)(=O)NC3CCCCC3)cc2)cc1 | 26.8% | 2.31 µM [rising, full curve, poor fit] | – |
| COc1ccccc1C(=O)OCC(=O)Nc1ccccc1OC(F)F | 4.66% | – | 0.366 µM [rising, full curve] |
| CC(=O)N1C(=O)N(C(C)=O)C2C1N(C(C)=O)C(=O)N2C(C)=O (stereo unspecified) | -58.9% | 20.6 µM [falling, single point] | 16.4 µM [falling, partial curve] |
| COc1cccc(C(=O)Nc2cc3c4c(c2)CC(=O)N4CCC3)c1 | – | 2.31 µM [rising, partial curve] | – |
| COc1ccc(/C=C/C(=O)NCCCn2ccnc2)cc1 | 28.8% | – | 10.3 µM [rising, partial curve, poor fit] |
| Cc1cccc(NC(=O)c2onc3c2CCCC3)n1 | -7.63% | – | 20.6 µM [rising, single point] |
| Cc1ccc(NC2=C/C(=N/S(=O)(=O)c3cccs3)c3ccccc3C2=O)cc1 | -82% | 20.6 µM [falling, partial curve] | 4.11 µM [falling, partial curve] |
| Cc1csc(NC(=S)Nc2cccc(Cl)c2)n1 | -3.01% | 0.651 µM [rising, single point] | 2.06 µM [rising, partial curve, poor fit] |
| O=C(CC(NC(=O)c1ccccc1Cl)c1ccccc1)NC1=NCCS1 (stereo unspecified) | – | 2.31 µM [rising, partial curve] | – |
| Cc1cc(C)c2nc(SC(C)C#N)cc(C)c2c1 (stereo unspecified) | – | 0.651 µM [rising, partial curve, poor fit] | 0.651 µM [rising, full curve] |
| Oc1ccc(/C(Cc2ccccn2)=N\Nc2ccccc2)c(O)c1 | -35.7% | 20.6 µM [falling, single point] | 23.1 µM [falling, single point] |
| COc1cc(OC)c(C(=O)O/N=C(\N)c2ccccn2)cc1OC | -18% | – | 16.4 µM [falling, single point] |
| CC(C)(C)C(=O)/C(=C/c1ccncc1)n1cncn1 | -54.5% | 23.1 µM [falling, single point] | 23.1 µM [falling, partial curve] |
| Cc1cccc(C)c1NC(=O)c1cccc(N2C(=O)C3CCC(C)CC3C2=O)c1 (stereo unspecified) | -18.8% | – | 0.13 µM [rising, full curve, poor fit] |
| COC(=O)c1cc2occc2n1CC(=O)Nc1ccc(OC)c(OC)c1OC | 4.96% | – | – |
| O=C(Nc1ccccc1F)c1ccc(S(=O)(=O)NCC2CCCO2)cc1 (stereo unspecified) | 2.98% | – | 29.1 µM [falling, single point] |
| COc1ccc(C(=O)Nn2cnnc2)c(OC)c1 | -69.3% | 29.1 µM [falling, single point] | – |
| C/C(=N/NC(=O)c1cccs1)c1ccc(N2CCOCC2)cc1 | 20.8% | – | 13 µM [rising, partial curve] |
| CCN1CCN(c2nc(-c3ccccc3)c3ccccc3n2)CC1 | 0.952% | – | 6.51 µM [falling, partial curve, poor fit] |

Three entries out of the list, ordered by SMILES length, rising.

| Compound | cell number change | AC50 [1] | AC50 [2] |
| --- | --- | --- | --- |
| Cc1csc(NC(=S)Nc2cccc(Cl)c2)n1 | -3.01% | 0.651 µM [rising, single point] | 2.06 µM [rising, partial curve, poor fit] |
| COC(=O)c1ccc(CSc2nnc3c(Cl)cc(Cl)cn23)o1 | -18.5% | – | 2.91 µM [rising, full curve] |
| CCN1CCN(S(=O)(=O)c2ccc(C(=O)Nc3sc4c(c3C(N)=O)CCN(CC)C4)cc2)CC1 | 23.8% | – | 29.1 µM [rising, single point] |
